From paper PMC7303255
Results are given in words; binding and its absence hold for the method and conditions named. For some of these results: Binding calls can cover weak binding; strength is not graded here.

Assays:
Test in all cases: two-hybrid; pairwise: GAL4 BD fusions in pAS2-1 (target) and GAL4 AD fusions in pACT2 (binder) in AH109; growth on SD/-Leu-Trp-His with various concentrations of 3-AT (20 or 50 mM), 30 °C, 6-9 days; colony-lift filter assay for lacZ
[1] = target: CIL 1-156aa fragment (Arabidopsis thaliana)
[2] = target: CCT motif of CIL (CIL 337-394aa) (Arabidopsis thaliana)
[3] = target: CIL 290-394aa fragment (Arabidopsis thaliana)

binding [1] | binding [2] | binding [3] | Binder
binds | no binding | – | full-length NUCLEAR FACTOR Y, Subunit C1 (NF-YC1) in pACT2 (protein, UniProt Q9SMP0 1-234) MDTNNQQPPPSAAGIPPPPPGTTISAAGGGASYHHLLQQQQQQLQLFWTYQRQEIEQVNDFKNHQLPLARIKKIMKADEDVRMISAEAPILFAKACELFILELTIRSWLHAEENKRRTLQKNDIAAAITRTDIFDFLVDIVPRDEIKDEAAVLGGGMVVAPTASGVPYYYPPMGQPAGPGGMMIGRPAMDPNGVYVQPPSQAWQSVWQTSTGTGDDVSYGSGGSSGQGNLDGQG
binds | no binding | – | full-length ARABIDOPSIS RESPONSE REGULATOR 3 (ARR3) in pACT2 (protein, UniProt Q9ZWS9 1-231) MAKDGGVSCLRRSEMIGIGIGELESPPLDSDQVHVLAVDDSLVDRIVIERLLRITSCKVTAVDSGWRALEFLGLDDDKAAVEFDRLKVDLIITDYCMPGMTGYELLKKIKESTSFKEVPVVIMSSENVMTRIDRCLEEGAEDFLLKPVKLADVKRLRSYLTRDVKVAAEGNKRKLTTPPPPPPLSATSSMESSDSTVESPLSMVDDEDSLTMSPESATSLVDSPMRSPGLA
binds | no binding | – | full-length ABSCISIC ACID … 3 (ABI3) in pACT2 (protein, UniProt Q01593 1-720) MKSLHVAANAGDLAEDCGILGGDADDTVLMDGIDEVGREIWLDDHGGDNNHVHGHQDDDLIVHHDPSIFYGDLPTLPDFPCMSSSSSSSTSPAPVNAIVSSASSSSAASSSTSSAASWAILRSDGEDPTPNQNQYASGNCDDSSGALQSTASMEIPLDSSQGFGCGEGGGDCIDMMETFGYMDLLDSNEFFDTSAIFSQDDDTQNPNLMDQTLERQEDQVVVPMMENNSGGDMQMMNSSLEQDDDLAAVFLEWLKNNKETVSAEDLRKVKIKKATIESAARRLGGGKEAMKQLLKLILEWVQTNHLQRRRTTTTTTNLSYQQSFQQDPFQNPNPNNNNLIPPSDQTCFSPSTWVPPPPQQQAFVSDPGFGYMPAPNYPPQPEFLPLLESPPSWPPPPQSGPMPHQQFPMPPTSQYNQFGDPTGFNGYNMNPYQYPYVPAGQMRDQRLLRLCSSATKEARKKRMARQRRFLSHHHRHNNNNNNNNNNQQNQTQIGETCAAVAPQLNPVATTATGGTWMYWPNVPAVPPQLPPVMETQLPTMDRAGSASAMPRQQVVPDRRQGWKPEKNLRFLLQKVLKQSDVGNLGRIVLPKKEAETHLPELEARDGISLAMEDIGTSRVWNMRYRFWPNNKSRMYLLENTGDFVKTNGLQEGDFIVIYSDVKCGKYLIRGVKVRQPSGQKPEAPPSSAATKRQNKSQRNINNNSPSANVVVASPTSQTVK
binds | no binding | – | full-length NUCLEAR FACTOR Y, Subunit B1 (NF-YB1) in pACT2 (protein, UniProt Q9SLG0 1-141) MADTPSSPAGDGGESGGSVREQDRYLPIANISRIMKKALPPNGKIGKDAKDTVQECVSEFISFITSEASDKCQKEKRKTVNGDDLLWAMATLGFEDYLEPLKIYLARYRELEGDNKGSGKSGDGSNRDAGGGVSGEEMPSW
no binding | no binding | binds | full-length CIA2 (CIA2FL) in pAS2-1 or pACT2 (protein, UniProt Q9LU68 1-435) MSACLSSGGGGAAAYSFELEKVKSPPPSSSTTTTRATSPSSTISESSNSPLAISTRKPRTQRKRPNQTYNEAATLLSTAYPNIFSSNLSSKQKTHSSSNSHFYGPLLSDNDDASDLLLPYESIEEPDFLFHPTIQTKTEFFSDQKEVNSGGDCYGGEIEKFDFSDEFDAESILDEDIEEGIDSIMGTVVESNSNSGIYESRVPGMINRGGRSSSNRIGKLEQMMMINSWNRSSNGFNFPLGLGLRSALRENDDTKLWKIHTVDFEQISPRIQTVKTETAISTVDEEKSDGKKVVISGEKSNKKKKKKKMTVTTTLITESKSLEDTEETSLKRTGPLLKLDYDGVLEAWSDKTSPFPDEIQGSEAVDVNARLAQIDLFGDSGMREASVLRYKEKRRTRLFSKKIRYQVRKLNADQRPRMKGRFVRRPNESTPSGQR
binds | no binding | – | full-length NUCLEAR FACTOR Y, Subunit C9 (NF-YC9) in pACT2 (protein, UniProt Q8L4B2 1-231) MDQQDHGQSGAMNYGTNPYQTNPMSTTAATVAGGAAQPGQLAFHQIHQQQQQQQLAQQLQAFWENQFKEIEKTTDFKNHSLPLARIKKIMKADEDVRMISAEAPVVFARACEMFILELTLRSWNHTEENKRRTLQKNDIAAAVTRTDIFDFLVDIVPREDLRDEVLGSIPRGTVPEAAAAGYPYGYLPAGTAPIGNPGMVMGNPGGAYPPNPYMGQPMWQQQAPDQPDQEN
